Assay results reported in PubChem BioAssay AID1508600 (Functional Genomics Laboratory (NCATS/FGL), 2020).
Screen size: about 53,000 sequences; about 3,700 (7%) were called active.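 Rule for the calls: active = gene knockdowns whose robust z-score for IL-1 alpha signal is at least 2 or at most -2, so actives lie on both sides; inactive = the rest.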 Some of the results follow.

Assay: Components of the Cytosolic LPS Sensing Pathway: Gene Identification via Genome-wide siRNA Screen;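 note: robust z of the log signal after scaling to non-targeting control siRNA wells of the plate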
Conditions: RAW264.7 macrophages, IL-1a HTRF, actives lie on both sides, screened at 100 nM (by protocol), cells primed 5 h with Pam3CSK4 first
Procedure, shortened: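 Three distinct siRNAs per gene were tested singly at 100 nM in RAW264.7 macrophages. Following Pam3CSK4 priming and 24 hour LipidA transfection, IL-1a secretion was read by HTRF.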

Sequence	z-score
CGAAGGAGCAACGGUAAAATT against Fkbp5	inactive: 0.953
GGAUGUCCACAACAAGUGATT against Glra1	inactive: -0.0877
GCAGACAGAGUUUUAACGUTT against Fancl	inactive: -0.381
GGCUAAAACUGCACAUAAATT against Pyroxd1	active: -3.43
GGAUACAAUGUCCGAGUGCTT against Tie1	inactive: -0.485
CGUAGGACACGUGAAUUGUTT against F7	inactive: -0.92
CGGCACUGUCAUAAGUGUGTT against Utp4	active: 2.39
GCAUGGCUAUUUAACAUUCTT against Rpl7l1	inactive: 0.171
GGACACAGAUGGUUUGUAUTT against Rcc1	inactive: -1.57
GGCUUCUCAUUGUGAAUAUTT against M1ap	inactive: -0.869
GGAUUUGAGAGAUUCAGUUTT against Siglecg	inactive: 0.0503
CCGCUGUUUUCAACUGUGCTT against Asb10	inactive: -0.773
GGAAAAGAAAGAUGUGACUTT against Trappc9	active: -2.55
GGGACAGCAACAUUGUCAATT against Inhbc	inactive: 0.907
GGCAUCUAUGACAAGUUUGTT against Dnajb13	inactive: 0.567
GGACAUUUAAAAUCACUUGTT against Fam110c	inactive: -0.895
GGAAAAGAUGGCUGUUGUCTT against Banf1	inactive: -1.18
GCAUGUUUACGUUCCUGACTT against Slc2a12	inactive: -0.0386
AAAACCACUCUGUUAUCACTT against Olfr774	inactive: 1.21
CCAUGGAAUUCAAUUCCUUTT against Vmn2r66	inactive: 0.0798
GGGCUCCGAUGAAGAGAAUTT against Ctrb1	inactive: 0.427
CCUGAUAUUCCAUCCUGAATT against Acad10	inactive: -0.626

Sequence	z-score
GCACGAAUCCUUUGUAUCATT against Spta1	inactive: -0.202
CCAAAUAGCCAAACUCUUGTT against Fgf17	inactive: 0.293
GCAAUGGAUCUCGUUUUUCTT against Slc6a6	inactive: 0.273
GGAGUUUUCUUGUGUUUUUTT against Fgfbp1	inactive: -0.17
CAAUGUUUGGGAACCUUCUTT against Olfr834	inactive: -1.19
GGAUUCAGGAGAAAAGACCTT against Olfr569	inactive: 1.66
CGGAAACAACUGCUCUAUGTT against Scarf1	inactive: 0.0727
GGCUUCUUCAGAUCCUAAATT against Olfr554	inactive: -0.615
GGGAAGAGAAUGAGAUAAATT against F7	active: 3.22
GGAACAAGUAAAGACUGUUTT against 4932411K12	inactive: -1.73
GGACUUUGUCACCAUGACGTT against Pef1	inactive: 0.105
GGAAUUUUUGGACAAAGUATT against Grid2	inactive: 1.19
GGAGCAGACAUCAGAAAGCTT against Nlrp5	inactive: 0.353
GCAGGUUGCUAUGCAUAUGTT against 9930038B18Rik	inactive: 0.722
GGUCAUAGUCACUGAUUCCTT against Magea5	inactive: -0.551
GGAAGCUGUUCACCACUGCTT against Pex6	inactive: 0.648
CCUAUGAGGUCAGAUUCUUTT against Ssr4	inactive: -0.0621
GCCAAGUGUUGGACUUUCATT against Fads3	inactive: -0.563
GGAGAAAGAGCCUUUAAGGTT against Clec14a	inactive: -0.437
GCAUGAAAACACGUUUGGGTT against Hdac11	inactive: 1.36
GGGAACAAAUUCAUUGUAUTT against Eny2	active: 2.26
GGGACAAAAGCUCCUCUAGTT against Kap	inactive: -1.85

Sequence	z-score
GGUUUCGUUGUUCUUGUUGTT against Ttc33	inactive: 0.55
CCACAAUUUGACCAACUUATT against Slc9a1	inactive: 1.3
CGACUGGGACAUUAAAACCTT against Tmem160	inactive: -1.55
GGAAAGCUCAAUUGGUUCGTT against Nup85	active: -2.27
AAUUGUAUGGUACUUCAUGTT against Olfr620	inactive: 0.343
GGAAAACUAACCAAAAUAGTT against F3	inactive: 1.45
CCGGUUGUUUUGAGUGUUGTT against Rad9b	inactive: 1.09
GGGCUCAUCUCAGAGGAGATT against Astl	inactive: 1.44
GGACUGGUGGACAUAUGAATT against Os9	active: 2.81
GGUUGGAGAAGUUGUUACUTT against Arl1	inactive: -0.0722
GCUGAAAAUACAAUCUCUGTT against Capn3	inactive: 1.55
GGUGUGUUCGAGUGUUUCUTT against Asb7	inactive: -0.602
GGAAACUGAUCUUUUGAAGTT against Ptgdr	inactive: -0.267
UUGACAGCUGGUAGACACUTT against Cdpf1	inactive: -0.96
GGGCUAGAAGAACAUGUAATT against Ear1	inactive: -1.16
CCUCUGUAGUCGCACCUAGTT against Agrp	inactive: 1.56
GGUGGAUAGUGACUUAUAUTT against Ifi47	inactive: 1.09
GGAUGCAAGGGUUUUUUCCTT against Pparg	inactive: -0.431
GGAUUGAAAUGUGUAAAACTT against Fam135b	inactive: -1.03
GCUGUUCCGAUUGGAAAUUTT against Pcmt1	inactive: 0.885
GGACAAGAAAACAGGUGUCTT against Tead3	inactive: 1.05
GGAAGACAGGCAUAAAAAATT against Slc41a2	inactive: -1.38

Some values from the results shown.
z-score, GGAUGCAAGGGUUUUUUCCTT against Pparg is entered as inactive: -0.431
z-score, GGAAAAGAUGGCUGUUGUCTT against Banf1 is entered as inactive: -1.18
z-score, GGAAGACAGGCAUAAAAAATT against Slc41a2 is entered as inactive: -1.38
z-score, AAUUGUAUGGUACUUCAUGTT against Olfr620 is entered as inactive: 0.343
z-score, GGAAUUUUUGGACAAAGUATT against Grid2 is entered as inactive: 1.19

Continuation:

Sequence	z-score
GCUCAUCGUGUUCGCUAUATT against Tuft1	inactive: -0.235
GGGAGACACUACACAAAAATT against Hsd3b5	inactive: 0.58
GGACACAAGAAUGGGAGAATT against Asph	inactive: 1.22
GCGGGCUUUGCUGAGAUUUTT against Zbtb48	inactive: 0.604
GGACUGGUCCGAGGUAACUTT against Bhlhb9	inactive: -1.51
GCAUUUGUUAAACCUGCCUTT against Coq10b	inactive: -0.0587
GCUAUGUAAGACAUUUAACTT against Ccdc162	inactive: 1.6
GGGACUUGCACUCAUCUUCTT against Sft2d2	inactive: 0.487
UCCCAGAAUAAGAGUGAGGTT against Clec4b2	inactive: -0.481
GGAUGCGGAUCAGAACUACTT against C1ql4	inactive: 0.803
GCAUGGAUUGCUGUUUCUATT against Fam122c	inactive: 0.993
GCAACAUGUGAACAGAUGCTT against Slx4	inactive: -0.13
GGAUCUGCAUUUCACUAUUTT against Pi4ka	inactive: 0.818
GGUAACAAAUGCUGUUUUATT against Cul1	inactive: 0.459
GGUUAUAUAAGCAUCAAGGTT against Adamts18	inactive: -0.621
GGAUUCAGAAUCCAUCUCUTT against Ankrd40	inactive: -1.9
CCGCAUUCCCAUGAAGACATT against Poc1b	inactive: 0.879
GCGACACUGAAUUCUUUUATT against Ccng2	inactive: 1.53
GGAAAAUUGUCCAUGUAAATT against Tex15	inactive: -1.61
GACCUACUUUCCUCACUUUTT against Hba-a1	inactive: -0.54
CCAAAGAGAUCCCAUACAATT against Spata31d1a	inactive: 1.31
GGGAGAGAAUGUGUUUGGUTT against Rps14	inactive: 0.265

Sequence	z-score
GGACUGAGAUCAAAUUCUCTT against Ptges2	inactive: 0.806
GGAGAUUAACAACAUGAAGTT against Brap	inactive: -0.707
CGAGAAGUACAAAAGGGAGTT against Ccdc103	inactive: -0.768
GUGCCAUGAAGAUCUCAAATT against Lce1c	inactive: 1.33
GGAGUGGCUCUGUUUGAACTT against Bsn	inactive: 0.775
GCCAAAUGGCUGUAUCUAUTT against Lgi2	inactive: -0.0593
CGGUGUUUUGGUUAAAUGUTT against Slamf6	inactive: 1.09
GGCAAAUUUGGAUGUGUGUTT against Dsg3	inactive: -0.378
GGUGUGGACCCUAAGCUUUTT against Pianp	inactive: 1.9
GGAAAGCAAGUGCACAAAUTT against Slco1a4	inactive: 0.618
GGAAUUUUCAGUGUGUAAATT against Adam9	inactive: -0.686
GCAGGAAUUCUUGAAUUAUTT against Ly75	active: 2.66
GGAUGAUGACAAUUUUGAATT against Nap1l4	inactive: -0.142
GGCCCAUAGUUGACUACAUTT against Septin8	inactive: 0.11
GCAGCAUUUUAUCAACCAGTT against R3hdm4	inactive: -0.0514
GCCUCUCUCUAUCUAUGCATT against Tob2	active: -2.2
GGGCAUUUAGGGAAAAAAUTT against Zfp451	inactive: -1.63
CCUGCUAAGUGAAUUUGUGTT against Cmpk1	active: 2.18
CCGUUGGAUACUGUAGUUCTT against Gpr152	inactive: 0.023
CCUAACAUUCACUGUGUCATT against Olfr994	inactive: 0.348
